# According to PubChem BioAssay AID2685 (National Center for Advancing Translational Sciences (NCATS), 2010):
# The list shows a part of the results. These are further read-outs of the screen, such as a control signal, another cell line or another target. No call is given for them. Most of these compounds were active or inconclusive in the main read-out, so they are no random draw. Words in brackets tell the shape of the fitted curve; partial curves, single points and poor fits give uncertain potencies.
# Experiment: qHTS Assay for Lipid Storage Modulators in Drosophila S3 Cells;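 as to cell number change: cells counted by Cell Tracker Red CMTPX staining in the red channel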
# Conditions: BODIPY lipid droplet fluorescence, 18-24 h; for cell number change: measured here: cell count max response, cells fed with added oleic acid
# Outline: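 Drosophila S3 cells loaded with oleic acid (400 uM, as added) and compounds at several concentrations; lipid droplets imaged by 488-nm laser-scanning cytometry, 500–530 nm intensity and object ratio to cell channel. Percent activity normalized to 20 uM Triacsin C.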
# [1] = measured here: cell number channel AC50, cells fed with added oleic acid
# [2] = measured here: lipid fluorescence (Fed channel) AC50, cells fed with added oleic acid
SMILES,cell number change [%],AC50 [1],AC50 [2]
O=C1N(c2ccccc2C(F)(F)F)O[C@]1(c1ccccc1)C1CCCCC1,-82.1,"29.1 µM [falling, single point]",
CCc1nnc(NC(=O)C2CCC(CNc3c(N4CCCCC4)c(=O)c3=O)CC2)s1 (configuration not stated),15.5,,"25.9 µM [rising, single point]"
O=C(Nc1cccc(S(=O)(=O)N2CCCCC2)c1)C1CC1,3.25,,
CC1CN(c2c3c(nc4ncnn24)CCCC3)CC(C)O1 (configuration not stated),-3.68,"1.16 µM [falling, full curve]","0.651 µM [falling, single point]"
COc1cccc(CC(CC(=O)O)C(=O)Nc2cc(C)ccc2C)c1 (configuration not stated),3.94,,
O=C(CSc1nnc(-c2ccncc2)n1Cc1ccccc1)NC1CCCCC1,15.5,,"0.259 µM [rising, full curve, poor fit]"
CN(CC(O)COC(c1ccccc1)c1ccccc1)C1CCCCC1 (configuration not stated),7.08,"6.51 µM [rising, partial curve, poor fit]",
Cc1cccc(CCNC(=O)CN(C)S(=O)(=O)c2ccc3c(c2)c(=O)n(C)c(=O)n3C)c1,-14,,
Cc1ccc(Sc2ncnc3onc(C)c23)cc1,-50.4,"29.1 µM [falling, single point]","29.1 µM [falling, single point]"
COc1ccc(C(=O)Nc2ccc3c(c2)C(=O)c2ccccc2C3=O)cc1OC,-22.7,,"0.116 µM [rising, full curve, poor fit]"
COc1cc(NC(=O)N2CCOCC2)cc(OC)c1,19.6,,"6.51 µM [falling, single point]"
O=C(c1ccc(Cl)c([N+](=O)[O-])c1)N(Cc1ccco1)C1CCS(=O)(=O)C1 (configuration not stated),-22.1,,"29.1 µM [rising, single point]"
COc1ccc(-c2[nH]ncc2-c2nc(C)cs2)c(O)c1,-30.6,,
CCOc1ccc(N(CC(=O)N2CCc3ccccc32)S(=O)(=O)c2c(C)noc2C)cc1,-19.4,"0.461 µM [falling, single point]","0.651 µM [falling, full curve, poor fit]"
Cc1sc2ncnc(NCCCO)c2c1C,23.6,"0.58 µM [falling, single point]","0.517 µM [falling, single point]"
CN(Cc1ccc(F)cc1)C(=O)c1cccc(S(=O)(=O)N2CCN(c3ccccc3)CC2)c1,-25,"4.11 µM [falling, single point]",
COc1ccc(S(=O)(=O)N2CCCCCC2)cc1C(=O)N(C)Cc1ccccc1F,-11.5,,
O=C(Nc1cccc(S(=O)(=O)NCc2ccco2)c1)c1cc(-c2ccc(F)cc2)nc2ccccc12,,,"29.1 µM [falling, single point]"
CCOC(=O)c1c(C)[nH]c(C)c1C(=O)COC(=O)COc1ccc(Cl)c(C)c1,-2.01,,
CC(=O)c1cccc(NC(=O)NCCS(C)=O)c1 (configuration not stated),2,,"29.1 µM [rising, single point]"

# Part of the list above, tab-delimited:
SMILES	cell number change [%]	AC50 [1]	AC50 [2]
COc1ccc(-c2[nH]ncc2-c2nc(C)cs2)c(O)c1	-30.6		
CCOc1ccc(N(CC(=O)N2CCc3ccccc32)S(=O)(=O)c2c(C)noc2C)cc1	-19.4	0.461 µM [falling, single point]	0.651 µM [falling, full curve, poor fit]

# (further entries)

SMILES,cell number change [%],AC50 [1],AC50 [2]
O=S(=O)(Nc1nc2ccccc2[nH]1)c1ccc(Cl)cc1,-11.2,,"0.146 µM [rising, full curve, poor fit]"
NS(=O)(=O)c1ccc(-c2ccc(/C=C3\C(=O)Nc4ccccc43)o2)cc1,21.7,,
O=C(Nc1ccc(Cc2ccncc2)cc1)C1CCC(N2C(=O)C3CC=CCC3C2=O)CC1 (configuration not stated),-8.6,,
COc1ccccc1NC(=O)C1=C(C)Nc2nnnn2C1c1ccccn1 (configuration not stated),36.6,"5.8 µM [rising, single point]",
CCC1(c2ccc(Cl)cc2)NC(=O)N(CC(=O)NC2CCCCCC2)C1=O (configuration not stated),20.1,,
O=C(CCl)N(c1ccc(Cl)cc1)c1c[nH]c2ccccc12,-46.2,"18.4 µM [falling, single point]","29.1 µM [falling, single point]"
O=C(CSc1nnc(-c2ccc(O)cc2)n1Cc1ccco1)c1ccccc1,,"6.51 µM [rising, single point]","6.51 µM [rising, single point]"
O=C(NC(=S)Nc1ccc(N2CCOCC2)cc1)c1ccco1,11,,"1.16 µM [falling, single point]"
NC(=O)CC(NC(=O)Cc1ccc(Cl)cc1)c1ccc(NCCCN2CCCC2=O)c([N+](=O)[O-])c1 (configuration not stated),10.5,,"14.6 µM [rising, partial curve]"
Cc1cc(N2CCN(C)CC2)ccc1NC(=O)c1ccc(-c2ccc(Cl)cc2)o1,17.5,"2.31 µM [falling, partial curve]",
CC(C)(O)c1[nH]c2ccc(C(F)(F)F)cc2c1C(C)(C)O,-12.9,,"7.31 µM [falling, single point]"
COc1cc(/C=c2\s/c(=C(/C#N)C(=O)N3CCCC3)n(-c3ccccc3)c2=O)ccc1O,-10.5,,"0.206 µM [falling, full curve, poor fit]"
CCN1/C(=C(\O)c2ccccc2)C(=O)c2ccccc2S1(=O)=O,-14.2,,"0.517 µM [falling, full curve, poor fit]"
N#C/C(=C\c1ccco1)C(=O)NCc1ccccc1,9.28,"2.06 µM [rising, partial curve]","2.91 µM [rising, partial curve]"
O=C(CSc1cc(Cl)ccc1Cl)Nc1ccc(N2CCOCC2)cc1,22.9,,"0.164 µM [rising, full curve, poor fit]"
Cc1nc2c(C(=O)N3CCOCC3)cnn2c(C)c1Cc1cccc(Cl)c1,-7.2,,"6.51 µM [rising, single point]"
CC(=O)Nc1ccc(S(=O)(=O)N(C)CC(=O)OCC(=O)Nc2cc(C)on2)cc1,1.56,,"0.00517 µM [falling, full curve, poor fit]"
CCOc1cccc(C2/C(=C(/O)c3ccc4c(c3)CC(C)O4)C(=O)C(=O)N2Cc2ccncc2)c1 (configuration not stated),,,"29.1 µM [rising, single point]"
CCCc1cc(=O)oc2cc(OCC(=O)NCCCN3CCCC3=O)ccc12,14.5,,
